The exact form of at least one protein or probe is not confirmed. Protein sequences can lack the tags named with them.

Experimental findings from paper doi:10.1101/2024.09.27.615457 (bioRxiv, 2024) are described below.

The target in one data set is T1, HY5 (Arabidopsis) (UniProt O24646).
T1 sequence (looked up, limits assumed): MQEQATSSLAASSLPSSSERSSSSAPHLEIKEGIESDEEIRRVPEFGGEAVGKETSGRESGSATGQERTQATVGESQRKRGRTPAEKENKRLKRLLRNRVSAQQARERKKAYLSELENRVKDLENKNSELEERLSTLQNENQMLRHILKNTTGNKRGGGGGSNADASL
Description: EMSA. Background: Mobility shift assays separate free from complexed probe on a gel.

The target in data set [1] is T2, bHLH107 (Arabidopsis thaliana (Col-0)) (UniProt Q9LET0).
T2 sequence (looked up, limits assumed): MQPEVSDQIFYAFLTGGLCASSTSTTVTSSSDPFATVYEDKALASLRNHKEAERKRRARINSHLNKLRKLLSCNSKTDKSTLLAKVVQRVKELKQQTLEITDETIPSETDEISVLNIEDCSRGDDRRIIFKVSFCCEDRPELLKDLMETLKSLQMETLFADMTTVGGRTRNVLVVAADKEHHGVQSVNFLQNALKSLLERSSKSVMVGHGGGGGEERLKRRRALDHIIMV
Description: EMSA.

For the sequence “AAACTGAAAAACACGTTGTTAGTTTATATG (double strand) [G-box1]”, the binding result with HY5 (Arabidopsis) is listed as “binds”.

Consider “CCAAAAGAAGAAGAAAAACCAAAAGAAGAAGAAAAA (double strand) [CuRE]”, for which the binding result in data set [1] is recorded as “binds”.

“GGTATGTTCCGACACGTTTCCGGCGAGAAC (double strand) [G-box2]”: the binding result with HY5 (Arabidopsis) is listed as “binds”.
